The list shows a part of the results.
Key:
Assay in all cases: log2 fold change, soluble protein after heating vs DMSO (PISA); higher = thermal stabilisation; K562 lysate, 10 uM; active = over 0.2 and 3.5 SD of the protein, either way, in both replicates (recomputed)
erlotinib = compound: C#Cc1cccc(Nc2ncnc3cc(OCCOC)c(OCCOC)cc23)c1 [erlotinib]
Method in brief: (§1)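 Pellets of K562 cells were dounce-homogenised in PBS pH 7.4 with 1 mM MgCl2, and the crude extract was held at 1 mg/mL protein for a 30 min treatment with 10 μM compound. Aliquots were heated for 3 min over 48°C-58°C and pooled before NP-40 was added to 0.5% at 4°C. The supernatant from 21,000xg for 90 min was quantified by TMTpro 16plex LC-MS/MS with channel sums equalised. Values are reported from duplicates as log-two fold change in thermal stability relative to solvent controls.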

The chains behind the UniProt entries cited, without tags or fusion partners. Where a name states a change or a piece, a line headed by the entry shows the natural chain unless it says otherwise.
UniProt Q13490, whole entry, looked up: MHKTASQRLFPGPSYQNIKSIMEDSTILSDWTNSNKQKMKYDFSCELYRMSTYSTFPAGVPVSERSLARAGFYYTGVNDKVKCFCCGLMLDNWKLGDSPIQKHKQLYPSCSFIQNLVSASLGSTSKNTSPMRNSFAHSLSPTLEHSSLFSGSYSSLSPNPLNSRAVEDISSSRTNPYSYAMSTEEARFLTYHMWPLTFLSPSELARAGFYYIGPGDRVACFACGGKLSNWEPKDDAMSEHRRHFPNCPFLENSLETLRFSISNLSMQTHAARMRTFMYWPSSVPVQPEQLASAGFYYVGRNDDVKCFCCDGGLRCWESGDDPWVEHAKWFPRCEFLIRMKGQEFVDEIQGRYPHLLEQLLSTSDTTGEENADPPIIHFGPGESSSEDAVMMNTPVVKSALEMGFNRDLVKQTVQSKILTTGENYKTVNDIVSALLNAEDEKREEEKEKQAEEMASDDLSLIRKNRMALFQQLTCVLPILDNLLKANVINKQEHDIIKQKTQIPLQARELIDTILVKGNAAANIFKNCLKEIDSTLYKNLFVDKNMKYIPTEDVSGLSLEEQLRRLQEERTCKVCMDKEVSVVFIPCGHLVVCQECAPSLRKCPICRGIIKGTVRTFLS
UniProt Q9NWV8, whole entry, looked up: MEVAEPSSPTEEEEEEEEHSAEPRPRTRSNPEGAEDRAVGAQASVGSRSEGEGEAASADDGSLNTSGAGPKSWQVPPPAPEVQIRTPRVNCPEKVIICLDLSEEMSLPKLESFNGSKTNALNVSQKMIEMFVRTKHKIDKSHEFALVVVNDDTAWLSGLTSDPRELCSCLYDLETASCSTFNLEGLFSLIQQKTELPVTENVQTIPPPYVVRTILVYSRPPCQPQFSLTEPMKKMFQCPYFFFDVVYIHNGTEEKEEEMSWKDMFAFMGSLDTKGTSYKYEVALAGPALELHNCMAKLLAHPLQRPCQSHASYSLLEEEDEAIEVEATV
UniProt P46736, whole entry, looked up: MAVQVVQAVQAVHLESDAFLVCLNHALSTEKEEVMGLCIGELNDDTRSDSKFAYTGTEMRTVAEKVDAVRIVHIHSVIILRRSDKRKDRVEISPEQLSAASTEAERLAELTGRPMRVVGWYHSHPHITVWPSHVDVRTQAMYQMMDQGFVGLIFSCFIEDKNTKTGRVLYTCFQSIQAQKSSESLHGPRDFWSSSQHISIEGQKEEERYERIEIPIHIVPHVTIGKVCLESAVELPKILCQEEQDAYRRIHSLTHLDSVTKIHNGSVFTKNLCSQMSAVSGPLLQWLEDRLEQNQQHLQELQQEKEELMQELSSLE
UniProt Q9NYM9: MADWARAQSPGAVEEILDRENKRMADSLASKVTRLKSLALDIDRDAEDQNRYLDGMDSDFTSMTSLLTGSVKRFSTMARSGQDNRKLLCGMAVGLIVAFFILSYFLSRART
UniProt Q9UL45: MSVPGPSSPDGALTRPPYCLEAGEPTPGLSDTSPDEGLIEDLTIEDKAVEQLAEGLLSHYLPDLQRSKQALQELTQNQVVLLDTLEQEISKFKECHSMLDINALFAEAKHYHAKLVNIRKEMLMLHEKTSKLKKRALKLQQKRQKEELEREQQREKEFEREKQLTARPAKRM
UniProt Q4VC05, whole entry, looked up: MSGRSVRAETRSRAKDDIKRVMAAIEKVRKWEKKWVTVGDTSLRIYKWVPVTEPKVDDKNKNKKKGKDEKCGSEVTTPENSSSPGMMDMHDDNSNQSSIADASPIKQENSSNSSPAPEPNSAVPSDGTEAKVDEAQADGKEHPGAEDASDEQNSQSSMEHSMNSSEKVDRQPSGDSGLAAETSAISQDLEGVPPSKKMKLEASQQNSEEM
UniProt Q96G01: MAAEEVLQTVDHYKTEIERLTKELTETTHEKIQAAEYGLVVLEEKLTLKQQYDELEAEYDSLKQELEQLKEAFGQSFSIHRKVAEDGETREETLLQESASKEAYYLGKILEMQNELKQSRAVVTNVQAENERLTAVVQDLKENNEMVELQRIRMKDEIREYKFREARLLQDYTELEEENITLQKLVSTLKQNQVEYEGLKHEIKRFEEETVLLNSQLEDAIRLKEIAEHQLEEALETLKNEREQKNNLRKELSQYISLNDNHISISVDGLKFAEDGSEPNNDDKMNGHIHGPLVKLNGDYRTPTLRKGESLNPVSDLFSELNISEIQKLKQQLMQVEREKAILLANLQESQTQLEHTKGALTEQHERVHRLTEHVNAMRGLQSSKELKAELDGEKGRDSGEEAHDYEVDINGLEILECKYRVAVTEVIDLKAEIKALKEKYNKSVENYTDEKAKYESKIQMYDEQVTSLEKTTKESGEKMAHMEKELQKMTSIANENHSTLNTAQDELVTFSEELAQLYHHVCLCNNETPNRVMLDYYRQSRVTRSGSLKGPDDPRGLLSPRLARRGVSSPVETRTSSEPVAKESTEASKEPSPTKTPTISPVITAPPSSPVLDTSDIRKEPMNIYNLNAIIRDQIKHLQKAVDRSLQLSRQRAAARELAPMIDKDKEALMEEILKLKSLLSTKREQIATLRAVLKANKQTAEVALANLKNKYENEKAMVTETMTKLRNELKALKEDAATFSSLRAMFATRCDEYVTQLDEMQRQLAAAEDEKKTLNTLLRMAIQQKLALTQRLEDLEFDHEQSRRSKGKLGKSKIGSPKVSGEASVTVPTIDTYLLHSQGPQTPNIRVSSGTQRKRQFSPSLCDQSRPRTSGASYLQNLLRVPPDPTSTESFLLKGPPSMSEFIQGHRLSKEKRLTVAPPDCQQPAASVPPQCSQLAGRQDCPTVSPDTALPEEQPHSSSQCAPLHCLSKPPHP
UniProt Q14457, whole entry, looked up: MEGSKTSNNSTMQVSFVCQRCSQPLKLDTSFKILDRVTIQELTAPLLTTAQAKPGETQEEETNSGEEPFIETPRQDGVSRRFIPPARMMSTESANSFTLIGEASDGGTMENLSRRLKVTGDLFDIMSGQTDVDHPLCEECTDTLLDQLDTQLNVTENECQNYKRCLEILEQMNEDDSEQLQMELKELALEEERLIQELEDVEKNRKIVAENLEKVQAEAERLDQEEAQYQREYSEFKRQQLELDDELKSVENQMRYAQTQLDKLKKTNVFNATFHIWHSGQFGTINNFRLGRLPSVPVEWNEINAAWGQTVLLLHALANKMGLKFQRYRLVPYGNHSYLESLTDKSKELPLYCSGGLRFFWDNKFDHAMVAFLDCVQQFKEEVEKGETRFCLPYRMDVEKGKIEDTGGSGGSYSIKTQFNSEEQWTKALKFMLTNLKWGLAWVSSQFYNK
UniProt O14981: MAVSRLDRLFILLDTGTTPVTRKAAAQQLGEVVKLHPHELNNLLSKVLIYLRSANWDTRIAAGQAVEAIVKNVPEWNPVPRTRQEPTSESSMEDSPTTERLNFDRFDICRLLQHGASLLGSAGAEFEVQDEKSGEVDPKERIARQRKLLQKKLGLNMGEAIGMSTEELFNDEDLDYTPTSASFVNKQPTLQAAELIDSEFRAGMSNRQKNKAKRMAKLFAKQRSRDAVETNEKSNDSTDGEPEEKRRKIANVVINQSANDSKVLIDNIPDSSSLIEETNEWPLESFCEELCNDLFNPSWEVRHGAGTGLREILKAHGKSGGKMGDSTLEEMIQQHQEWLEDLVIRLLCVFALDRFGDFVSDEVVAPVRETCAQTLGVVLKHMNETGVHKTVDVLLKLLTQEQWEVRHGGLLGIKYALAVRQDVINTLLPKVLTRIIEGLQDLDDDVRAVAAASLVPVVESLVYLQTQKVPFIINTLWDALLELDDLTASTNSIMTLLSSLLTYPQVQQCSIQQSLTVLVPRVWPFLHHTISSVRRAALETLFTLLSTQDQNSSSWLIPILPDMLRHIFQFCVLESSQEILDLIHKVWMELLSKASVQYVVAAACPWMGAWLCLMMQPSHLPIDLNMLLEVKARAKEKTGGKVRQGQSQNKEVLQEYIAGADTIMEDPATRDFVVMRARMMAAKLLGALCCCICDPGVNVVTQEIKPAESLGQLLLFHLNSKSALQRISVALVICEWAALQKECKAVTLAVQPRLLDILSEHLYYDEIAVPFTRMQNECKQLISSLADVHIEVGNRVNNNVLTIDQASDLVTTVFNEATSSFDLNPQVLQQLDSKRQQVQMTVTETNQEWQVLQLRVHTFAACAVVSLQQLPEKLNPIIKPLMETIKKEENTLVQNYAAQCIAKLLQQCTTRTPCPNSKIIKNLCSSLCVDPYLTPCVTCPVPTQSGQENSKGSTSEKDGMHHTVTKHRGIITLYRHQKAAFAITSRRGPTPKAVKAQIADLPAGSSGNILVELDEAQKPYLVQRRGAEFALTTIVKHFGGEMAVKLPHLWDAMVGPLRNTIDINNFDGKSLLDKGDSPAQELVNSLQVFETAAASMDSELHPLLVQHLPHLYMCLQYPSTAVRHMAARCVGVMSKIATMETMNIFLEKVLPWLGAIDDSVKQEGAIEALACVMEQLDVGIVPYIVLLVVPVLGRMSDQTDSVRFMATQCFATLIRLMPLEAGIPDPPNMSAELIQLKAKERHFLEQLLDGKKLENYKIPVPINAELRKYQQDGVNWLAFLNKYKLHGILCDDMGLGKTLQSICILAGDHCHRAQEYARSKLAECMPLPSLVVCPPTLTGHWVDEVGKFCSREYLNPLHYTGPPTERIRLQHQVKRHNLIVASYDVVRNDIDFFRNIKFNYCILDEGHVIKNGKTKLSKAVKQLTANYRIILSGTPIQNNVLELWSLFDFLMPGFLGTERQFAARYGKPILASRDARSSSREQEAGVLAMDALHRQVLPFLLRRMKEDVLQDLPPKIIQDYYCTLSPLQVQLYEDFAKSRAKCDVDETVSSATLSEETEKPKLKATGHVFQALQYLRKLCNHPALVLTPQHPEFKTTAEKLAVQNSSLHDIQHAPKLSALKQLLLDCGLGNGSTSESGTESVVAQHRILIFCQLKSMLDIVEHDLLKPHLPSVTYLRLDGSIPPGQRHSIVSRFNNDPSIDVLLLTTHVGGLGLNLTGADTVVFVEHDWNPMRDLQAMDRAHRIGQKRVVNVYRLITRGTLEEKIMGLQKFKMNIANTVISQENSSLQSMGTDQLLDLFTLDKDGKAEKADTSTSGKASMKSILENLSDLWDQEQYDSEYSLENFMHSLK
UniProt O95861: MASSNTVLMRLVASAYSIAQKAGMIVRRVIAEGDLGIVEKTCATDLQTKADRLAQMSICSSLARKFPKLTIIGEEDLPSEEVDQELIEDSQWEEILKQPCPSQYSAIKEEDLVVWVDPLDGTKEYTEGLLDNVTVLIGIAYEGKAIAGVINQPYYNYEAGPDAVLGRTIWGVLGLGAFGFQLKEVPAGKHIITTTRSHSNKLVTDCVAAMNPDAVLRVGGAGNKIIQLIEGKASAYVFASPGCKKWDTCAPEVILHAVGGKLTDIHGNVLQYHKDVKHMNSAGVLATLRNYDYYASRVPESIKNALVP
UniProt Q53S33: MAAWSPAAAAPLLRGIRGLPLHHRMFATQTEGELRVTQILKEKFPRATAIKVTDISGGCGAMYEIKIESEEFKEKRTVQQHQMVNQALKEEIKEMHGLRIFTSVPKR
UniProt P30043: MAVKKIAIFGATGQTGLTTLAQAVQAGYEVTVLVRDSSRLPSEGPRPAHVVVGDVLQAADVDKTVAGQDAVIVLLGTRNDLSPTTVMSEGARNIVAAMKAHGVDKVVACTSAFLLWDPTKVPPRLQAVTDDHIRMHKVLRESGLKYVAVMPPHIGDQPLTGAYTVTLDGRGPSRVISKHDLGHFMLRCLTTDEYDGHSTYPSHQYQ
UniProt Q12981: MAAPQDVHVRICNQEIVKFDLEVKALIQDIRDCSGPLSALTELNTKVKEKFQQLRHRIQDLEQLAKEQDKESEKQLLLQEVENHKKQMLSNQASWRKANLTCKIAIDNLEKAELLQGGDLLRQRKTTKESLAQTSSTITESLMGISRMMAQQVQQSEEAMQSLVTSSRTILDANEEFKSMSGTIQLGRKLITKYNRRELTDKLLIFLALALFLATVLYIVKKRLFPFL
UniProt Q8TDN6: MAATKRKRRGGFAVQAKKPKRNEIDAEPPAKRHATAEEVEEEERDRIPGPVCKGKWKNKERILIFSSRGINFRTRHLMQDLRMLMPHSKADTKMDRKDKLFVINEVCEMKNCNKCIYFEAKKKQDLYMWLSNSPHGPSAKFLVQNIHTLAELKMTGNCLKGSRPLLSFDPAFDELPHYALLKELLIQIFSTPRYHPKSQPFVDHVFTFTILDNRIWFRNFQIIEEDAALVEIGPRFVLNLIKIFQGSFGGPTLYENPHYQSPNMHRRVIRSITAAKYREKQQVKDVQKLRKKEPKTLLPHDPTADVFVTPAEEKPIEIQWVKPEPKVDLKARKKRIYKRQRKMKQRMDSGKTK

[1] = compound: C/C(=N\NC(=O)C1=CC(=CC=C1)S(=O)(=O)N2CCOCC2)/C3=C(C=CC(=C3)Cl)O
Method in brief: as §1

[2] = compound: C1=CC(=CC=C1C2=NC3=C(N2)C=C(C=C3)C(=O)N)OC4=CC=C(C=C4)Cl
Method in brief: as §1

[3] = compound: C1=CC2=C(C=CC(=C2)/C=C\3/C(=O)NC(=NCC4=CC=CS4)S3)N=C1
Method in brief: as §1

[4] = compound: C1=CC2=NC=CN=C2C=C1/C=C/3\C(=O)NC(=O)S3
Method in brief: as §1

[5] = compound: C1=CC=C(C=C1)C2=NC(=C(N2)C3=CC=NC=C3)C4=CC(=C(C=C4)Cl)O
Method in brief: as §1

[6] = compound: C1=CC=C2C(=C1)C3=NNC4=CC=CC(=C43)C2=O
Method in brief: as §1

[7] = compound: C1CCN(C1)C(=O)NC2=CC=CC(=C2)NC3=NC=C(C(=N3)NCCC4=CN=CN4)Br
Method in brief: as §1

[8] = compound: C1CN(CCC1(CC2=CC=C(C=C2)Cl)N)C3=NC=NC4=C3C=CN4
Method in brief: as §1

IRAK-1-4 Inhibitor I = compound: C1COCCN1CCN2C3=CC=CC=C3N=C2NC(=O)C4=CC(=CC=C4)[N+](=O)[O-] [IRAK-1-4 Inhibitor I]
Method in brief: as §1

ibrutinib = compound: C=CC(=O)N1CCC[C@@H](n2nc(-c3ccc(Oc4ccccc4)cc3)c3c(N)ncnc32)C1 [ibrutinib]
Method in brief: as §1

[9] = compound: CC(=O)c1cnc2ccc(-c3cc(Cl)c(O)c(Cl)c3)nc2c1N[C@H]1CC[C@H](CN(C)C)CC1
Method in brief: as §1

ralimetinib = compound: CC(C)(C)Cn1c(N)nc2ccc(-c3[nH]c(C(C)(C)C)nc3-c3ccc(F)cc3)nc21 [ralimetinib]
Method in brief: as §1

[10] = compound: CC(C)(O)CC(=O)NCCn1ccc2ncnc(Nc3ccc(Oc4cccc(C(F)(F)F)c4)c(Cl)c3)c21
Method in brief: as §1

[11] = compound: CC(C)C1=C2N=C(C=C(N2N=C1)NCC3=CC=CC=C3)NCCCCCCN
Method in brief: as §1

[12] = compound: CC1=C(C(CC(=O)N1)C2=CC=C(C=C2)C(F)(F)F)C(=O)NC3=C(C=C4C(=C3)C=NN4)F
Method in brief: as §1

[13] = compound: CC1=C(C2=C(C=C1)C(=O)C3=CC=CC=C3N2CCCN)C
Method in brief: as §1

[14] = compound: CC1=C(C=C(C=C1)NC(=O)C2=CC(=CC=C2)C(C)(C)C#N)NC3=CC4=C(C=C3)N=CN(C4=O)C
Method in brief: as §1

[15] = compound: CC1=C(C=C(C=C1)NC(=O)C2=CC(=CC=C2)N(C)C)NC(=O)C3=CC=C(C=C3)O
Method in brief: as §1

[16] = compound: CC1=CC=C(C=C1)SC2=C3C=C(SC3=CN=C2)C(=O)N
Method in brief: as §1

Measured: log2 fold change

BIRC2 (UniProt Q13490)
inactive: erlotinib 0.034 | [1] 0.005 | [2] -0.022 | [3] -0.025 | [4] 0.022 | [5] -0.015 | [6] 0.061 | [7] 0.013 | [8] 0.011 | IRAK-1-4 Inhibitor I 0.01 | ibrutinib 0.019 | [9] 0.002 | ralimetinib 0.008 | [10] -0.023 | [11] 0.002 | [12] -0.007 | [13] 0.021 | [14] -0.009 | [15] -0.026 | [16] -0.013

BABAM1 (UniProt Q9NWV8)
inactive: erlotinib 0.041 | [1] -0.022 | [2] 0.049 | [3] 0.021 | [4] -0.029 | [5] 0 | [6] 0.021 | [7] -0.015 | [8] -0.015 | IRAK-1-4 Inhibitor I -0.04 | ibrutinib 0.047 | [9] 0.003 | ralimetinib 0.023 | [10] 0.003 | [11] -0.037 | [12] -0.009 | [13] 0.035 | [14] -0.004 | [15] 0.008 | [16] -0.006

BRCC3 (UniProt P46736)
inactive: erlotinib -0.008 | [1] 0.122 | [2] 0.041 | [3] -0.054 | [4] 0.003 | [5] 0.013 | [6] 0.054 | [7] -0.035 | [8] -0.054 | IRAK-1-4 Inhibitor I -0.041 | ibrutinib 0.009 | [9] 0.023 | ralimetinib -0.026 | [10] 0.03 | [11] -0.028 | [12] -0.048 | [13] -0.018 | [14] 0.049 | [15] -0.072 | [16] 0.018

BET1L (UniProt Q9NYM9)
inactive: erlotinib 0.04 | [1] -0.025 | [2] -0.049 | [3] 0.064 | [4] 0.071 | [5] -0.04 | [6] -0.16 | [7] -0.059 | [8] 0.029 | IRAK-1-4 Inhibitor I -0.025 | ibrutinib 0.224 | [9] 0.022 | ralimetinib 0.034 | [10] 0.047 | [11] -0.124 | [12] -0.065 | [13] 0.009 | [14] -0.03 | [15] -0.014 | [16] 0.184

BLOC1S6 (UniProt Q9UL45)
inactive: erlotinib -0.008 | [1] 0.007 | [2] 0.029 | [3] 0.027 | [4] 0.001 | [5] 0.002 | [6] -0.004 | [7] 0.093 | [8] -0.01 | IRAK-1-4 Inhibitor I -0.031 | ibrutinib 0.156 | [9] -0.07 | ralimetinib 0.015 | [10] 0.061 | [11] -0.029 | [12] 0.014 | [13] -0.033 | [14] -0.001 | [15] -0.017 | [16] 0.012

BCL7A isoform 2 (UniProt Q4VC05)
inactive: erlotinib -0.018 | [1] 0.002 | [2] 0.021 | [3] -0.012 | [4] 0.045 | [5] 0.014 | [6] 0.003 | [7] 0.095 | [8] 0.013 | IRAK-1-4 Inhibitor I -0.05 | ibrutinib 0.036 | [9] -0.03 | ralimetinib -0.01 | [10] 0.045 | [11] -0.076 | [12] 0.005 | [13] 0.015 | [14] -0.048 | [15] 0.016 | [16] -0.041

Four neighbouring entries already listed, for reference:
BIRC2 (UniProt Q13490)
inactive: erlotinib 0.034 | [1] 0.005 | [2] -0.022 | [3] -0.025 | [4] 0.022 | [5] -0.015 | [6] 0.061 | [7] 0.013 | [8] 0.011 | IRAK-1-4 Inhibitor I 0.01 | ibrutinib 0.019 | [9] 0.002 | ralimetinib 0.008 | [10] -0.023 | [11] 0.002 | [12] -0.007 | [13] 0.021 | [14] -0.009 | [15] -0.026 | [16] -0.013

BABAM1 (UniProt Q9NWV8)
inactive: erlotinib 0.041 | [1] -0.022 | [2] 0.049 | [3] 0.021 | [4] -0.029 | [5] 0 | [6] 0.021 | [7] -0.015 | [8] -0.015 | IRAK-1-4 Inhibitor I -0.04 | ibrutinib 0.047 | [9] 0.003 | ralimetinib 0.023 | [10] 0.003 | [11] -0.037 | [12] -0.009 | [13] 0.035 | [14] -0.004 | [15] 0.008 | [16] -0.006

BRCC3 (UniProt P46736)
inactive: erlotinib -0.008 | [1] 0.122 | [2] 0.041 | [3] -0.054 | [4] 0.003 | [5] 0.013 | [6] 0.054 | [7] -0.035 | [8] -0.054 | IRAK-1-4 Inhibitor I -0.041 | ibrutinib 0.009 | [9] 0.023 | ralimetinib -0.026 | [10] 0.03 | [11] -0.028 | [12] -0.048 | [13] -0.018 | [14] 0.049 | [15] -0.072 | [16] 0.018

BET1L (UniProt Q9NYM9)
inactive: erlotinib 0.04 | [1] -0.025 | [2] -0.049 | [3] 0.064 | [4] 0.071 | [5] -0.04 | [6] -0.16 | [7] -0.059 | [8] 0.029 | IRAK-1-4 Inhibitor I -0.025 | ibrutinib 0.224 | [9] 0.022 | ralimetinib 0.034 | [10] 0.047 | [11] -0.124 | [12] -0.065 | [13] 0.009 | [14] -0.03 | [15] -0.014 | [16] 0.184

The listing continues.

BICD1 (UniProt Q96G01)
inactive: erlotinib 0.002 | [1] -0.013 | [2] 0.012 | [3] 0.008 | [4] -0.039 | [5] 0.023 | [6] 0.025 | [7] -0.024 | [8] 0.038 | IRAK-1-4 Inhibitor I 0.013 | ibrutinib 0.012 | [9] 0.01 | ralimetinib -0.015 | [10] -0.017 | [11] 0.003 | [12] 0.029 | [13] -0.025 | [14] -0.018 | [15] 0.028 | [16] 0.027

BCKDK (UniProt O14874)
inactive: erlotinib -0.041 | [1] -0.168 | [2] -0.007 | [3] 0.062 | [4] -0.007 | [5] -0.053 | [6] 0.01 | [7] -0.041 | [8] 0.045 | IRAK-1-4 Inhibitor I -0.097 | ibrutinib 0.048 | [9] 0.049 | ralimetinib 0.137 | [10] -0.017 | [11] -0.001 | [12] -0.048 | [13] 0.004 | [14] -0.088 | [15] 0.067 | [16] 0.059

BECN1 (UniProt Q14457)
inactive: erlotinib -0.013 | [1] -0.016 | [2] -0.077 | [3] 0.03 | [4] 0.047 | [5] -0.064 | [6] 0.045 | [7] -0.01 | [8] -0.023 | IRAK-1-4 Inhibitor I 0.024 | ibrutinib -0.014 | [9] 0.036 | ralimetinib 0.039 | [10] 0 | [11] -0.052 | [12] -0.005 | [13] -0.002 | [14] -0.017 | [15] -0.01 | [16] 0

BTAF1 (UniProt O14981)
inactive: erlotinib 0.044 | [1] -0.035 | [2] -0.01 | [3] -0.002 | [4] -0.003 | [5] 0.002 | [6] 0.002 | [7] -0.017 | [8] 0.022 | IRAK-1-4 Inhibitor I -0.034 | ibrutinib -0.016 | [9] -0.003 | ralimetinib 0.01 | [10] -0.008 | [11] 0.003 | [12] 0.018 | [13] 0.023 | [14] 0 | [15] 0.025 | [16] -0.012

BPNT1 (UniProt O95861)
inactive: erlotinib 0.004 | [1] 0.026 | [2] -0.018 | [3] 0.003 | [4] -0.001 | [5] 0.012 | [6] 0.024 | [7] 0.016 | [8] 0.036 | IRAK-1-4 Inhibitor I 0.017 | ibrutinib -0.001 | [9] -0.025 | ralimetinib 0.01 | [10] 0.018 | [11] -0.029 | [12] -0.064 | [13] 0.002 | [14] 0.045 | [15] -0.038 | [16] 0.008

BOLA3 (UniProt Q53S33)
inactive: erlotinib 0.023 | [1] 0.005 | [2] 0.016 | [3] -0.047 | [4] 0.026 | [5] -0.026 | [6] 0.018 | [7] 0.021 | [8] -0.008 | IRAK-1-4 Inhibitor I 0.026 | ibrutinib 0.044 | [9] -0.002 | ralimetinib -0.025 | [10] -0.007 | [11] 0.014 | [12] 0.02 | [13] -0.012 | [14] -0.055 | [15] -0.025 | [16] -0.013

BLVRB (UniProt P30043)
inactive: erlotinib 0.019 | [1] 0.184 | [2] -0.006 | [3] 0.004 | [4] 0.036 | [5] -0.03 | [6] 0.012 | [7] -0.021 | [8] 0.038 | IRAK-1-4 Inhibitor I 0 | ibrutinib -0.046 | [9] 0.02 | ralimetinib -0.033 | [10] -0.041 | [11] 0.04 | [12] -0.009 | [13] 0.02 | [14] 0.034 | [15] 0.037 | [16] 0.004

BNIP1 (UniProt Q12981)
inactive: erlotinib -0.028 | [1] 0.05 | [2] -0.048 | [3] -0.011 | [4] -0.026 | [5] 0.071 | [6] -0.009 | [7] 0.002 | [8] 0.018 | IRAK-1-4 Inhibitor I -0.004 | ibrutinib 0.038 | [9] 0.005 | ralimetinib 0.01 | [10] -0.011 | [11] 0.051 | [12] 0.046 | [13] 0.005 | [14] 0.002 | [15] 0.024 | [16] 0.012

BRIX1 (UniProt Q8TDN6)
inactive: erlotinib -0.012 | [1] -0.117 | [2] -0.028 | [3] 0.005 | [4] -0.009 | [5] 0.033 | [6] 0.07 | [7] 0.02 | [8] -0.001 | IRAK-1-4 Inhibitor I -0.013 | ibrutinib -0.022 | [9] 0.006 | ralimetinib 0.013 | [10] 0.003 | [11] -0.02 | [12] 0.005 | [13] -0.047 | [14] -0.016 | [15] -0.015 | [16] 0.033
